Experimental data: PubChem BioAssay AID1259314 (Drosophila RNAi Screening Center, 2017)

Screen: 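Modifiers of manganese chloride toxicity in fly cells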 (primary screen)
Cell system: Drosophila S2R+ cells
Reagents: long dsRNA against Drosophila genes
Timing: 5 days (4 days knock-down, then 1 day metal exposure)
Treatment: manganese chloride added to 15 mM for 24 hours
Detection: 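Cellular ATP measured by luciferase light, scaled to the plate mean, averaged across replicates and z-scored over plates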
Reading the numbers: mean ATP z-score: higher = more ATP than the plate average, more viable cells under manganese
Call rule: 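a mean ATP z-score past 1.5 in either direction is called active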
Calls: active = strong ATP change, up or down; inactive = no strong ATP change
In all, the deposit lists about 3,100 reagents; shown is an unselected part. 289 of them (9.3%) count as active. 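Active includes both higher and lower ATP than plate average; check the z-score sign for direction.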 A plus sign joins genes that one reagent is predicted to hit. Not given: the amount of reagent.

With jef (jet fuel) [DRSC06198], what was measured?
mean ATP z-score: 1.3; call: inactive

For jef (jet fuel) [DRSC24815], what does the deposit list?
mean ATP z-score: 0.332; call: inactive

What did the screen give for Sur (Sulfonylurea receptor) [DRSC03447]?
mean ATP z-score: -0.0895; call: inactive

With Sur (Sulfonylurea receptor) [DRSC27276], what does the deposit list?
mean ATP z-score: 0.166; call: inactive

For CG34234 + Dh44-R2 [DRSC07278], how do the results read?
mean ATP z-score: -0.264; call: inactive

What is on record for xit (xiantuan) [DRSC18364]?
mean ATP z-score: -0.247; call: inactive

Which result is listed for xit (xiantuan) [DRSC39724]?
mean ATP z-score: -0.0791; call: inactive

How did the screen score hbt + CG43779 [DRSC23270]?
mean ATP z-score: -1.6; call: active

With hbt + CG43779 [DRSC39693], what was measured?
mean ATP z-score: -1.25; call: inactive

Which result is listed for Npc1b (Niemann-Pick type C-1b) [DRSC20488]?
mean ATP z-score: 0.227; call: inactive

What did the screen give for Npc1b (Niemann-Pick type C-1b) [DRSC39575]?
mean ATP z-score: 0.322; call: inactive

How did the screen score Oatp74D (Organic anion transporting polypeptide 74D) [DRSC09491]?
mean ATP z-score: 0.45; call: inactive

With Oatp74D (Organic anion transporting polypeptide 74D) [DRSC10883], what does the deposit list?
mean ATP z-score: 0.0666; call: inactive

For CG3156 [DRSC27939], how do the results read?
mean ATP z-score: 0.736; call: inactive

Which result is listed for CG3156 [DRSC39874]?
mean ATP z-score: 0.887; call: inactive

How did the screen score CG1998 [DRSC19829]?
mean ATP z-score: -0.171; call: inactive

With CG1998 [DRSC39895], what was measured?
mean ATP z-score: 0.607; call: inactive

With VhaPPA1-1 (Vacuolar H[+] ATPase PPA1 subunit 1) [DRSC16170], how do the results read?
mean ATP z-score: 2.27; call: active

How did the screen score VhaPPA1-1 (Vacuolar H[+] ATPase PPA1 subunit 1) [DRSC24144]?
mean ATP z-score: 1.37; call: inactive

For CG6293 [DRSC16011], how do the results read?
mean ATP z-score: 1.28; call: inactive

For CG6293 [DRSC28774], what was measured?
mean ATP z-score: 0.809; call: inactive

For Corin [DRSC28927], what was measured?
mean ATP z-score: -0.13; call: inactive

For Corin [DRSC39613], what was measured?
mean ATP z-score: -0.24; call: inactive

With Tsp42Eo (Tetraspanin 42Eo) [DRSC06184], what does the deposit list?
mean ATP z-score: 1.83; call: active

Which result is listed for CG7514 [DRSC08597]?
mean ATP z-score: -1.44; call: inactive

How did the screen score CG7514 [DRSC25670]?
mean ATP z-score: 1.86; call: active

With nAChRalpha7 (nicotinic Acetylcholine Receptor alpha7) [DRSC20078], what was measured?
mean ATP z-score: 1.5; call: inactive

With nAChRalpha7 (nicotinic Acetylcholine Receptor alpha7) [DRSC20081], what was measured?
mean ATP z-score: 1.37; call: inactive

Which result is listed for CG32988 [DRSC02692]?
mean ATP z-score: -0.227; call: inactive

For CG13101 [DRSC02201], how do the results read?
mean ATP z-score: 0.639; call: inactive

How did the screen score CG13101 [DRSC39475]?
mean ATP z-score: 0.25; call: inactive

With CNT1 (Concentrative nucleoside transporter 1) [DRSC06082], what does the deposit list?
mean ATP z-score: -0.733; call: inactive

What is on record for CNT1 (Concentrative nucleoside transporter 1) [DRSC29671]?
mean ATP z-score: -0.291; call: inactive

With pasi2 (pasiflora 2) [DRSC16380], what does the deposit list?
mean ATP z-score: 1.3; call: inactive

With pasi2 (pasiflora 2) [DRSC39713], how do the results read?
mean ATP z-score: -1.35; call: inactive

For Gr93c (Gustatory receptor 93c) [DRSC14587], what was measured?
mean ATP z-score: 0.271; call: inactive

With CG31358 + CG42505 + CG42504 [DRSC15235], what was measured?
mean ATP z-score: -0.894; call: inactive

For CG31358 + CG42505 + CG42504 [DRSC15308], what was measured?
mean ATP z-score: -1.22; call: inactive

What did the screen give for CG31358 + CG42505 + CG42504 [DRSC15309]?
mean ATP z-score: -0.497; call: inactive

What is on record for Or24a (Odorant receptor 24a) [DRSC00768]?
mean ATP z-score: 0.0678; call: inactive

For CG8916 [DRSC20120], what was measured?
mean ATP z-score: -0.0548; call: inactive

With CG8916 [DRSC39685], what does the deposit list?
mean ATP z-score: 0.442; call: inactive

For CG34396 [DRSC04245], how do the results read?
mean ATP z-score: 0.821; call: inactive

For CG34396 [DRSC04246], how do the results read?
mean ATP z-score: -0.633; call: inactive

What did the screen give for CG34396 [DRSC29674]?
mean ATP z-score: -0.289; call: inactive

With Nha2 (Na[+]/H[+] hydrogen antiporter 2) [DRSC14689], what was measured?
mean ATP z-score: 1.18; call: inactive

How did the screen score Nha2 (Na[+]/H[+] hydrogen antiporter 2) [DRSC15623]?
mean ATP z-score: 0.201; call: inactive
